Reference: publication PMC2989915
The exact form of at least one protein or probe is not confirmed. Results from cells or extracts need not show a direct contact.

Chains of the proteins cited; added tags and fusions are not shown. Lines headed by an entry give the natural chain unless they say otherwise; changes in a name come on top.
UniProt P42225: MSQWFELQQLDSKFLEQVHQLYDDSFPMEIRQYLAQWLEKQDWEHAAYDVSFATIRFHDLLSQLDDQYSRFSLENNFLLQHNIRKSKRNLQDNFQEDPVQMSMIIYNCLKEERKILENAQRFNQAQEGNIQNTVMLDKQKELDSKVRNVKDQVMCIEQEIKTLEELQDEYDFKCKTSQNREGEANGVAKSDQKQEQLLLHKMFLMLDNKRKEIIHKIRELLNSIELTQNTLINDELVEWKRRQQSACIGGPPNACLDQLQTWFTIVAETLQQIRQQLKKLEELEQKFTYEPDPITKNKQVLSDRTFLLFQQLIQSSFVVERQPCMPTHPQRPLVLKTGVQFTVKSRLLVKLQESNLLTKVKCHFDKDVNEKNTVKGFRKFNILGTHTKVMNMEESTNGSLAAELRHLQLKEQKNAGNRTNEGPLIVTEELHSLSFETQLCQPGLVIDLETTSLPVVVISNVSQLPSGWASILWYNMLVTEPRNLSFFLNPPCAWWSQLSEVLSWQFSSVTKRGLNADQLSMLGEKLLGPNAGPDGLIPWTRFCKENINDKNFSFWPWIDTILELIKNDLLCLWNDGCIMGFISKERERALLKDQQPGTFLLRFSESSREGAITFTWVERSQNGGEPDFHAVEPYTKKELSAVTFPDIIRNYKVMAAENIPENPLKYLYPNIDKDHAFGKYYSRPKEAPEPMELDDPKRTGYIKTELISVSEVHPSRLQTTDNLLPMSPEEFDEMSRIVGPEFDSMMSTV

Molecular target: pSTAT1 (phosphorylated STAT1, IFN-γ-activated) (UniProt P42225)
Assay: EMSA with anti-pSTAT1 mAb
Details: IFN-γ-treated 5KC nuclear extract; 10 mM Tris-HCl pH 7.5, 1 mM MgCl2, 0.5 mM EDTA, 0.5 mM DTT, 50 mM NaCl, 4% glycerol, 0.05 mg/ml poly(dI-dC), 20 µg nuclear extract, 20 min at room temperature; protein in an extract

Q: Does “TAAAGACTTCCCAGAATTCCAA (double strand) [survivin promoter GAS probe]” bind?
A: binds
